In the supplement of paper PMC12819154, “High-throughput peptide-centric local stability assay extends protein–ligand identification to membrane proteins, tissues and bacteria” (Nature Structural & Molecular Biology, 2025):
Some of the results follow. Small differences around the control level are noise.

Sequences of proteins named here, by UniProt entry; tags and fusion partners are left off. A change or cut given only in a name is not applied to a line headed by its entry.
UniProt Q9P0N9: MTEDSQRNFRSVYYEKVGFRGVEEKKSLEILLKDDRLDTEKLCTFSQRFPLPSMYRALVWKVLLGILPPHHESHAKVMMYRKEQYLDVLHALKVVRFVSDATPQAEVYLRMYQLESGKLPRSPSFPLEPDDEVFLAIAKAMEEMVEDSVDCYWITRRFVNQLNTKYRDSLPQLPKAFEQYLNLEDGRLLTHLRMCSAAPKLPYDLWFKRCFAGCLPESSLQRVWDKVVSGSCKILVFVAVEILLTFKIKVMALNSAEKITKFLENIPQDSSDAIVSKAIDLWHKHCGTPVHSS
UniProt Q9UGJ0: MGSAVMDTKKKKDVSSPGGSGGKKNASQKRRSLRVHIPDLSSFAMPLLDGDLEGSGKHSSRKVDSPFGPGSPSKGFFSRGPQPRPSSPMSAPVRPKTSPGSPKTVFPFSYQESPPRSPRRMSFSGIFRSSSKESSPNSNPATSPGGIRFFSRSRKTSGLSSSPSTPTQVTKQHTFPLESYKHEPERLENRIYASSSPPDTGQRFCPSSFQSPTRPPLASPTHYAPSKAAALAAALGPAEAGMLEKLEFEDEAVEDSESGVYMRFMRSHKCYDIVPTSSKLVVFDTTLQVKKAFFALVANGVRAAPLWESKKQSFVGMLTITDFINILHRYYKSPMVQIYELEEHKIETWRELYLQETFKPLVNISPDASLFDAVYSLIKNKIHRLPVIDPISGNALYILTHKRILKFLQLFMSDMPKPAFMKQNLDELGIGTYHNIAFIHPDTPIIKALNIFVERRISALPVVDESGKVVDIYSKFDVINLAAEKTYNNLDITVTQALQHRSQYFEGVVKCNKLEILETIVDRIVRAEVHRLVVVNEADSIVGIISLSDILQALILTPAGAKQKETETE
UniProt Q9NZJ9: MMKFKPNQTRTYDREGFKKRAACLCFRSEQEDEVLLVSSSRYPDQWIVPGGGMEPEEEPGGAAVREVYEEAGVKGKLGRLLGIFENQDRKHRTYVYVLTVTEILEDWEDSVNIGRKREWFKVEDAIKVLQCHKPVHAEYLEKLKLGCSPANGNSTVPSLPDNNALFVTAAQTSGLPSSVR
UniProt Q9P2N2: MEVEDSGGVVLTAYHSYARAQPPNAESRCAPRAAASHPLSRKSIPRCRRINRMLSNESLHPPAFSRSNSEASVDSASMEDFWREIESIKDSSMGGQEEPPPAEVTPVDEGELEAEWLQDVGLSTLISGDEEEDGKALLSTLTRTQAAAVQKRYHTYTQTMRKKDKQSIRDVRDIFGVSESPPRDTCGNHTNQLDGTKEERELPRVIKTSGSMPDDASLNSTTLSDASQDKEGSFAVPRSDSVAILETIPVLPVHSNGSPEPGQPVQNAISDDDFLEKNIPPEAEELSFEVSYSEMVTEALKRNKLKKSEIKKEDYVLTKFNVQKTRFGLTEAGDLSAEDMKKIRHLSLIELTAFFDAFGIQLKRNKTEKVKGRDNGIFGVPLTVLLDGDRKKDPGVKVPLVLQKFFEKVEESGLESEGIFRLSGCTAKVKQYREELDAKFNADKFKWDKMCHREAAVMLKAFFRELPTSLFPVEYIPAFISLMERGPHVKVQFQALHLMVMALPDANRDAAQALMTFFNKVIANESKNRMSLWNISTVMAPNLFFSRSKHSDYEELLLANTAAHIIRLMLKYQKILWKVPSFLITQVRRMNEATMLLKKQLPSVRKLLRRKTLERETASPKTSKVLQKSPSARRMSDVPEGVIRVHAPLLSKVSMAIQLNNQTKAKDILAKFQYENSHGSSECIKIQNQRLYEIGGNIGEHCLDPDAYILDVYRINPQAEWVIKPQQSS
UniProt Q9UBQ5, whole entry: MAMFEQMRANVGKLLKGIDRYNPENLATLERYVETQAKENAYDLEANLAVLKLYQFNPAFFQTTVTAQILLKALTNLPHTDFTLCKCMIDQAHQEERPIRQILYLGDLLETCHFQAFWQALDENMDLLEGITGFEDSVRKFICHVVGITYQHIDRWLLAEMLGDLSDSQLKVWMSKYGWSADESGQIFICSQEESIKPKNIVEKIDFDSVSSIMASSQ
UniProt Q9UGM6: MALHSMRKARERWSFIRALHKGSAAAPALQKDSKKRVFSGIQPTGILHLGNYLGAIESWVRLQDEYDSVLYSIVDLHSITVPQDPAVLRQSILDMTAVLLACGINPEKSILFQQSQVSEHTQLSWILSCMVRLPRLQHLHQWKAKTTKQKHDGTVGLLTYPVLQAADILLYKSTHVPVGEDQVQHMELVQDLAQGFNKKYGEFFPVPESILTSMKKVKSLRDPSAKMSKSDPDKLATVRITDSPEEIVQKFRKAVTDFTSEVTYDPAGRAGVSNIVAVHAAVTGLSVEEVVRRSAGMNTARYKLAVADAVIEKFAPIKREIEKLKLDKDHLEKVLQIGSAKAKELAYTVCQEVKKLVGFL
UniProt Q9UGC7: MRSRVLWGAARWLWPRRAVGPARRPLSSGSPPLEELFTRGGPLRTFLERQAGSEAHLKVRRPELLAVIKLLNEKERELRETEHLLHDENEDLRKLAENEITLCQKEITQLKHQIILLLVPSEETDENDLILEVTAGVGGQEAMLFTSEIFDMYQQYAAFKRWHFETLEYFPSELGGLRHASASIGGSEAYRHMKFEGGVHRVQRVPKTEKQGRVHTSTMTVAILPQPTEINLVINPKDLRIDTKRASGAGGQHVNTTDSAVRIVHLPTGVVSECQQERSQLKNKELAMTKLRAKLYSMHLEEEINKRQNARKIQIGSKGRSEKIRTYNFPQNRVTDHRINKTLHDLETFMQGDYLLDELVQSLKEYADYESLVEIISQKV
UniProt Q9UBH6: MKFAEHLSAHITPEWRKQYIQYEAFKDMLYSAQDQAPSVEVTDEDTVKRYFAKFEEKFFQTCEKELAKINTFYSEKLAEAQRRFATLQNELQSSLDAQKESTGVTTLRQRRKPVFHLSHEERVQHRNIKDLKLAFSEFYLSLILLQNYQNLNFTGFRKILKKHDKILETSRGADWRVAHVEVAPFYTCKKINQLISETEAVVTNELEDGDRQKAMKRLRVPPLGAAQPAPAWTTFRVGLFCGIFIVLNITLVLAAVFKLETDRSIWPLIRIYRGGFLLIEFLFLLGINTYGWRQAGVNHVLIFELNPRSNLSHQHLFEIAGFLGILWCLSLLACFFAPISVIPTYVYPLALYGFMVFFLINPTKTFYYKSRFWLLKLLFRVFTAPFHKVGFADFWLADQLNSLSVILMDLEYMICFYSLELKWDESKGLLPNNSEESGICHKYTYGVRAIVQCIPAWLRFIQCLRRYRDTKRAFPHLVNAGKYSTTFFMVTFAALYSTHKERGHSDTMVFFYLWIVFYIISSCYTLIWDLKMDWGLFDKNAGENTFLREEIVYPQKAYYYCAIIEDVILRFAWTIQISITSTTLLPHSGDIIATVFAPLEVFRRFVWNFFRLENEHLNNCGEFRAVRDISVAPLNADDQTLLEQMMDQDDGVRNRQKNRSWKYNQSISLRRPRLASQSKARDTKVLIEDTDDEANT
UniProt Q9P2B7: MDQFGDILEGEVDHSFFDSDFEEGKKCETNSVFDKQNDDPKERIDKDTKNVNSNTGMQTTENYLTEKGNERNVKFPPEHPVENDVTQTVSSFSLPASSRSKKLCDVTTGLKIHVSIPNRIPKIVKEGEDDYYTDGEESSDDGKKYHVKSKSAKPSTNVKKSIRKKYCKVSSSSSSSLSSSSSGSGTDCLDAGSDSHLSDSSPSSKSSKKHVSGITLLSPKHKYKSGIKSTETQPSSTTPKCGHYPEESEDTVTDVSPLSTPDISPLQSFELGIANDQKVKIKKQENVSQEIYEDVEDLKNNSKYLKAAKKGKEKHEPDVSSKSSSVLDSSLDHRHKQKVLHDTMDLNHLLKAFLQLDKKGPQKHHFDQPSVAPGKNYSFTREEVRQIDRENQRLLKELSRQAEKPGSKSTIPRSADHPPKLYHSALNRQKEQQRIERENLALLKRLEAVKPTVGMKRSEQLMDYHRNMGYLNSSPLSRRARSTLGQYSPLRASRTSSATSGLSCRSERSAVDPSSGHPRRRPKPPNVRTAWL
UniProt Q9UGU0: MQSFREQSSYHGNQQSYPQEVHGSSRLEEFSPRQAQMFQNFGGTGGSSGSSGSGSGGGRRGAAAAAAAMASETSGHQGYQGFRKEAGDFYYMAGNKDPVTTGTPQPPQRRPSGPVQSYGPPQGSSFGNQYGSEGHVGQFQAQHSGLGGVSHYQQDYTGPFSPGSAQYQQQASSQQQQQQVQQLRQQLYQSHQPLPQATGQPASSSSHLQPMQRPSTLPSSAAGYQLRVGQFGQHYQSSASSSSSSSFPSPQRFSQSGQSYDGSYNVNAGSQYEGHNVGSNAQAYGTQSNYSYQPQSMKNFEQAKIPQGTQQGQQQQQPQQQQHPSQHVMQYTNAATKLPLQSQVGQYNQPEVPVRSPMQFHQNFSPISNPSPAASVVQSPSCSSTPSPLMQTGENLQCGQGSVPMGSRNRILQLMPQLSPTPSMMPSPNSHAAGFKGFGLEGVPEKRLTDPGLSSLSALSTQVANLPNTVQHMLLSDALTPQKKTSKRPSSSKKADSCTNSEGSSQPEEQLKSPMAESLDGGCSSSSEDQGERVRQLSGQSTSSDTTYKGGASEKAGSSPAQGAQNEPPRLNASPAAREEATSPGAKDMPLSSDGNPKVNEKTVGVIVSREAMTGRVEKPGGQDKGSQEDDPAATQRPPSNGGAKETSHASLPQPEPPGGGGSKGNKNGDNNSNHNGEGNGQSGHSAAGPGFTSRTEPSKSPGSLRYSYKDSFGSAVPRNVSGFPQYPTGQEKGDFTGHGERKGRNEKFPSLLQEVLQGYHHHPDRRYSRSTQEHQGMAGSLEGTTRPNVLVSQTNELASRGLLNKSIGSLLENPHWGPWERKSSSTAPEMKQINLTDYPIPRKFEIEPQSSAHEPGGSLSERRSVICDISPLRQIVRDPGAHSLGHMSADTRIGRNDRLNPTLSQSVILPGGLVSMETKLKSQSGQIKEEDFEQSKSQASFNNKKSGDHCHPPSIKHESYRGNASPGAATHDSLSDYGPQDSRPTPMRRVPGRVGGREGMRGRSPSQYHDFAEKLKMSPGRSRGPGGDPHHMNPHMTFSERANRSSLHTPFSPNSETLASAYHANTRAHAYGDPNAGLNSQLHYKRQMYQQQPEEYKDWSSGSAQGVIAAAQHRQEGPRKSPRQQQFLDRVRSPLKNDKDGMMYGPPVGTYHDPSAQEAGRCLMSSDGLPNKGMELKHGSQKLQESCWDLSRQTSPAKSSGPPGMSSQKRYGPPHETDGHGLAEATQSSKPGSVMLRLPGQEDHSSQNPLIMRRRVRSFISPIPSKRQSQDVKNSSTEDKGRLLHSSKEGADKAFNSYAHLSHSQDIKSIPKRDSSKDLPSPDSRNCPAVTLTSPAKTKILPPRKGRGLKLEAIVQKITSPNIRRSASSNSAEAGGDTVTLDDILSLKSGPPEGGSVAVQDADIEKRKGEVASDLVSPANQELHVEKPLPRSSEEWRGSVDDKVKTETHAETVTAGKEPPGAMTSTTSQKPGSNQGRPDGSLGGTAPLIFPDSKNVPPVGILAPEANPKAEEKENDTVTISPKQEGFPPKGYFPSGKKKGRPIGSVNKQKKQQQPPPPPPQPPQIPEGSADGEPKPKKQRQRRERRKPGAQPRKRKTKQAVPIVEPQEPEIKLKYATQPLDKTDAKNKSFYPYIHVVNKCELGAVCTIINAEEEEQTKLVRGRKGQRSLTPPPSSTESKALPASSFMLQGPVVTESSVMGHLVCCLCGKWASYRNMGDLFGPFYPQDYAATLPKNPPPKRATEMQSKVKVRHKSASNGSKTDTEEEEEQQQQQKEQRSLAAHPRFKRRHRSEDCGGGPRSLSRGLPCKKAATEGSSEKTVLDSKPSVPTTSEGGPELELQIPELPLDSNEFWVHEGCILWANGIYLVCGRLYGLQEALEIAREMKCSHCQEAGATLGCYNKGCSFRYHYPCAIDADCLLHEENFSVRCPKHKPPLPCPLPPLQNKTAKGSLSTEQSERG
UniProt Q9NZD4: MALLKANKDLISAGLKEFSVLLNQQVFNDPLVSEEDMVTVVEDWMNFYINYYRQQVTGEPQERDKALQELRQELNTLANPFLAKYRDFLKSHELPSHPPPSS
UniProt Q9NXV6: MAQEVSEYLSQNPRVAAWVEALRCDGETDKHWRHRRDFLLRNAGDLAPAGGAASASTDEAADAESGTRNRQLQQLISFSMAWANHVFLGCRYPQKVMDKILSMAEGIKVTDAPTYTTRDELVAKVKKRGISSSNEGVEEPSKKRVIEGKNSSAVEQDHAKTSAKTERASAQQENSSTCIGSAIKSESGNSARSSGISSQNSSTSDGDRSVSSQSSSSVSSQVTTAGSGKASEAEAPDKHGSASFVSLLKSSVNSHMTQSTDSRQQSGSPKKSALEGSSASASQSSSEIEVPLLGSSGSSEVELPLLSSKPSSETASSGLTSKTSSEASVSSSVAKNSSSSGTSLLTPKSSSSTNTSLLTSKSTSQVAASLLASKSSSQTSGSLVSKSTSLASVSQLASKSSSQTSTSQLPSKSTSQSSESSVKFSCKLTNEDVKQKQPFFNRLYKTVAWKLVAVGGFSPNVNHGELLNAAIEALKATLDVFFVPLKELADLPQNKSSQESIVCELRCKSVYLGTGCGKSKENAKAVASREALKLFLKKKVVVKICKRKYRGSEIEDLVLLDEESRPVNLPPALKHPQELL

Compound: Cc1nc(Nc2ncc(C(=O)Nc3c(C)cccc3Cl)s2)cc(N2CCN(CCO)CC2)n1 [dasatinib]
Test: log2 fold change of tryptic peptide abundance, ligand vs vehicle (limited proteolysis) (log2 ratio); higher = more trypsin-susceptible (destabilized)
Conditions: ligand concentration: 5 uM; sample: K562 cleared lysate

| Target | log2 fold change |
| --- | --- |
| TBC1D7 (peptide sequence: KEQYLDVLHALK, peptide start residue: 82) (UniProt Q9P0N9) | -0.457 |
| PRKAG2 (peptide sequence: FDVINLAAEK, peptide start residue: 244) (UniProt Q9UGJ0) | -0.188 |
| FBXL12 (peptide sequence: VMWHLLR, peptide start residue: 58) (UniProt Q9NXK8) | -0.205 |
| COPG2 (peptide sequence: DMTGKEDVYR, peptide start residue: 112) (UniProt Q9UBF2) | -0.293 |
| MRPL15 (peptide sequence: VSLANLKPNPGSK, peptide start residue: 22) (UniProt Q9P015) | 0.0866 |
| NUDT4 (peptide sequence: LLGIFENQDRK, peptide start residue: 80) (UniProt Q9NZJ9) | -0.219 |
| CFDP1 (peptide sequence: KAQSIPAR, peptide start residue: 54) (UniProt Q9UEE9) | 0.21 |
| COMMD3 (peptide sequence: STLSTYLEDCKFDR, peptide start residue: 81) (UniProt Q9UBI1) | 0.266 |
| MRPL27 (peptide sequence: CLYALEEGIVR, peptide start residue: 88) (UniProt Q9P0M9) | 0.285 |
| SPAST (peptide sequence: VYVSLPNEETR, peptide start residue: 504) (UniProt Q9UBP0) | 0.0936 |
| ARHGAP28 (peptide sequence: SKHSDYEELLLANTAAHIIR, peptide start residue: 548) (UniProt Q9P2N2) | 0.761 |
| FTSJ1 (peptide sequence: EIRPQDCPISR, peptide start residue: 289) (UniProt Q9UET6) | 0.00378 |
| RNF14 (peptide sequence: ALEEMESKEWLEK, peptide start residue: 387) (UniProt Q9UBS8) | 0.45 |
| TRMT1 (peptide sequence: ESENLASGDQPR, peptide start residue: 131) (UniProt Q9NXH9) | 0.173 |
| EIF3K (peptide sequence: ALTNLPHTDFTLCK, peptide start residue: 73) (UniProt Q9UBQ5) | -0.192 |
| DNAJB4 (peptide sequence: DGSNIIYTAK, peptide start residue: 246) (UniProt Q9UDY4) | -0.335 |
| MORF4L1 (peptide sequence: YVDTNLQK, peptide start residue: 104) (UniProt Q9UBU8) | 0.113 |
| WARS2 (peptide sequence: SDPDKLATVR, peptide start residue: 230) (UniProt Q9UGM6) | 0.1 |
| MTRF1L (peptide sequence: LYSMHLEEEINKR, peptide start residue: 295) (UniProt Q9UGC7) | -0.134 |
| MRPL35 (peptide sequence: MTTSFWK, peptide start residue: 161) (UniProt Q9NZE8) | -0.0259 |
| XPR1 (peptide sequence: YNQSISLR, peptide start residue: 663) (UniProt Q9UBH6) | -0.169 |
| MAT2B (peptide sequence: EKELSIHFVPGSCR, peptide start residue: 5) (UniProt Q9NZL9) | 0.107 |
| ABI2 (peptide sequence: REIGILTTNKNTSR, peptide start residue: 107) (UniProt Q9NYB9) | 0.329 |
| UniProt Q9P2B7 (peptide sequence: STLGQYSPLR, peptide start residue: 482) | 0.298 |
| TCF20 (peptide sequence: GFGLEGVPEKR, peptide start residue: 437) (UniProt Q9UGU0) | -0.575 |
| AHSP (peptide sequence: SHELPSHPPPSS, peptide start residue: 91) (UniProt Q9NZD4) | -0.0819 |
| CDKN2AIP (peptide sequence: VTDAPTYTTR, peptide start residue: 109) (UniProt Q9NXV6) | -0.293 |
| ZC3H7B (peptide sequence: FVCGQCWR, peptide start residue: 695) (UniProt Q9UGR2) | -0.123 |

Quoted at random: two entries already listed

| Target | log2 fold change |
| --- | --- |
| MRPL27 (peptide sequence: CLYALEEGIVR, peptide start residue: 88) (UniProt Q9P0M9) | 0.285 |
| RNF14 (peptide sequence: ALEEMESKEWLEK, peptide start residue: 387) (UniProt Q9UBS8) | 0.45 |
